This passage reports binding results from article PMC7817543.

Sequences of proteins named here, by UniProt entry; tags and fusion partners are left off.
UniProt P46937: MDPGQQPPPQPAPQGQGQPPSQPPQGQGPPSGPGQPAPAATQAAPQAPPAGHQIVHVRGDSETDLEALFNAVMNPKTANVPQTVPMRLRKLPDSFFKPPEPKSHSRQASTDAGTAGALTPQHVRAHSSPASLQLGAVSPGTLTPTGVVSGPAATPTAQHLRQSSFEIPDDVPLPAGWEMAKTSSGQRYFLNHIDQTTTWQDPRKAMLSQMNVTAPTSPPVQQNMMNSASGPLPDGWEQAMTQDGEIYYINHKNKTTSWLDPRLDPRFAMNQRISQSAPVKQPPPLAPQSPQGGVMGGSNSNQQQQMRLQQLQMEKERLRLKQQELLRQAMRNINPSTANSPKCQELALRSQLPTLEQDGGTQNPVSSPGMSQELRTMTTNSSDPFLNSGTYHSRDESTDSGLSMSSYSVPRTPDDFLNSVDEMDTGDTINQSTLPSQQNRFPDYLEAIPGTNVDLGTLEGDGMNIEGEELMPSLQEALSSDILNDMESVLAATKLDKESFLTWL

The target of one assay is T1, Flag-NUSAP1 (human) (UniProt Q9BXS6).
T1 sequence: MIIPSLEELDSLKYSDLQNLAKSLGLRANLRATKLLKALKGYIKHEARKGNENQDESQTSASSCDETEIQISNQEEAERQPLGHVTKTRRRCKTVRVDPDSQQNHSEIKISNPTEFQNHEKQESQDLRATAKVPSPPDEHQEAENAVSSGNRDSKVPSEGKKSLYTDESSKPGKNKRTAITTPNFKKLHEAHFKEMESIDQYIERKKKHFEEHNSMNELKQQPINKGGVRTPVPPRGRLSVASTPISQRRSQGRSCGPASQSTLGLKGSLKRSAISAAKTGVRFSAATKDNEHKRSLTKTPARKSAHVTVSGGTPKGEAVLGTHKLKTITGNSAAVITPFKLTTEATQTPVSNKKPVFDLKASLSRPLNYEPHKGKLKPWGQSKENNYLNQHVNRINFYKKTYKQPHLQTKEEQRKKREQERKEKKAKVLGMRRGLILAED
Put plainly: co-IP; anti-Flag beads on lysates of transfected BGC823 cells; 1000 μg total protein, 4°C, 4 h; Western blot.

The target of assay [1] is Yes-associated protein (YAP1), endogenous (human (endogenous in BGC823)) (UniProt P46937). Put plainly: co-IP; BGC823 cell lysates immunoprecipitated with anti-YAP1 or control IgG; Western blot with anti-NUSAP1 and anti-YAP1; endogenous proteins.
Another assay addresses ectopic YAP1 (UniProt P46937). The assay can be described thus: co-IP; anti-HA beads on lysates of transfected SGC7901 cells; 1000 μg total protein, 4°C, 4 h; Western blot.

These are yes or no findings as the source states them, for the method shown. Binding seen in cells or lysates may run through a third protein. Some binding calls cover weakened binding; strength is not graded here. For part of these data: Tags and fused reporters may be left off the sequences shown.

In the case of “ectopic YAP1 (from UniProt P46937 1-504)”, the binding entry in the assay with Flag-NUSAP1 (human) was “binds”.

B1: nucleolar spindle-associated protein 1 (NUSAP1), endogenous (protein, UniProt Q9BXS6 1-441)
chain: MIIPSLEELDSLKYSDLQNLAKSLGLRANLRATKLLKALKGYIKHEARKGNENQDESQTSASSCDETEIQISNQEEAERQPLGHVTKTRRRCKTVRVDPDSQQNHSEIKISNPTEFQNHEKQESQDLRATAKVPSPPDEHQEAENAVSSGNRDSKVPSEGKKSLYTDESSKPGKNKRTAITTPNFKKLHEAHFKEMESIDQYIERKKKHFEEHNSMNELKQQPINKGGVRTPVPPRGRLSVASTPISQRRSQGRSCGPASQSTLGLKGSLKRSAISAAKTGVRFSAATKDNEHKRSLTKTPARKSAHVTVSGGTPKGEAVLGTHKLKTITGNSAAVITPFKLTTEATQTPVSNKKPVFDLKASLSRPLNYEPHKGKLKPWGQSKENNYLNQHVNRINFYKKTYKQPHLQTKEEQRKKREQERKEKKAKVLGMRRGLILAED
Consider B1, for which, in assay [1], the binding result was “binds”.

B2: Flag-NUSAP1 (protein, UniProt Q9BXS6 1-441)
chain: MIIPSLEELDSLKYSDLQNLAKSLGLRANLRATKLLKALKGYIKHEARKGNENQDESQTSASSCDETEIQISNQEEAERQPLGHVTKTRRRCKTVRVDPDSQQNHSEIKISNPTEFQNHEKQESQDLRATAKVPSPPDEHQEAENAVSSGNRDSKVPSEGKKSLYTDESSKPGKNKRTAITTPNFKKLHEAHFKEMESIDQYIERKKKHFEEHNSMNELKQQPINKGGVRTPVPPRGRLSVASTPISQRRSQGRSCGPASQSTLGLKGSLKRSAISAAKTGVRFSAATKDNEHKRSLTKTPARKSAHVTVSGGTPKGEAVLGTHKLKTITGNSAAVITPFKLTTEATQTPVSNKKPVFDLKASLSRPLNYEPHKGKLKPWGQSKENNYLNQHVNRINFYKKTYKQPHLQTKEEQRKKREQERKEKKAKVLGMRRGLILAED
Regarding B2, the binding entry with ectopic YAP1 is “binds”.
